According to article PMC4503440:
No constants are given. Whether binding was seen depends on the method and setting. Binding seen in cells or lysates may run through a third protein. A result given as binding can be weak or reduced; the word gives no strength. Where a sequence is shown, tags or fusion partners need not be part of it.

Chains of the proteins cited; added tags and fusions are not shown. Lines headed by an entry give the natural chain unless they say otherwise; changes in a name come on top.
UniProt Q15052: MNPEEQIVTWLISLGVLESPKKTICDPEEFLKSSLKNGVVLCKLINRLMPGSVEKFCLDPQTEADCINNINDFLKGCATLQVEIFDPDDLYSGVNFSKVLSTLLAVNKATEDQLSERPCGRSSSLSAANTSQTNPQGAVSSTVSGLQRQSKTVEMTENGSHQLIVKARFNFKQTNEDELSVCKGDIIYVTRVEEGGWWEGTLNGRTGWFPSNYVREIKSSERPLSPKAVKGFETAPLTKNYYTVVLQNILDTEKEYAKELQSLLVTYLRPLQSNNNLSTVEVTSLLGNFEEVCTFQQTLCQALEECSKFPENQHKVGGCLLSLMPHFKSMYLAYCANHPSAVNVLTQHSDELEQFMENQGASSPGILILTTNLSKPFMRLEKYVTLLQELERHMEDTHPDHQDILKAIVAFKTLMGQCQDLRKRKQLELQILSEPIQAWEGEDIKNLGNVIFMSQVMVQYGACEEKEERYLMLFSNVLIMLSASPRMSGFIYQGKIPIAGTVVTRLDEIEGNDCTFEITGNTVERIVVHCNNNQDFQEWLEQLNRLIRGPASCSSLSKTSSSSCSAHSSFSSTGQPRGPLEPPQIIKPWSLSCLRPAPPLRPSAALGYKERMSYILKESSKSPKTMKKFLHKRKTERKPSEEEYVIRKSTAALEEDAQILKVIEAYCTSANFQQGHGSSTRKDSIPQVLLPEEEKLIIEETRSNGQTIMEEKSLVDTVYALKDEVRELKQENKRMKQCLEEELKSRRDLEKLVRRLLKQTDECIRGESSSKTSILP

Tests used:
Experiment in all cases: co-IP; transfected COS-7 cells; lysis in 150 mM Tris-HCl pH 8.0, 50 mM NaCl, 1 mM EDTA, 0.5% Nonidet P40; HA-αPIX precipitated on anti-HA agarose 2 h at 4°C; blot with anti-Cbl or anti-FLAG; in Fig 2A cells in 10% FBS or serum-starved and stimulated with 5 ng/ml EGF for 5-60 min
[1] = target: HA-tagged αPIX lacking the SH3 domain (human) (UniProt Q15052)
[2] = target: HA-tagged αPIX lacking the calponin homology domain (human) (UniProt Q15052)
[3] = target: HA-tagged αPIX lacking the coiled-coil domain (human) (UniProt Q15052)

| binding [1] | binding [2] | binding [3] | Binder |
| --- | --- | --- | --- |
| binds | binds | binds | Flag-tagged wild-type rat Git1 (protein, UniProt Q9Z272 1-770) MSRKGPRAEVCADCSAPDPGWASISRGVLVCDECCSVHRSLGRHISIVKHLRHSAWPPTLLQMVHTLASNGANSIWEHSLLDPAQVQSGRRKANPQDKVHPIKSEFIRAKYQMLAFVHKLPCRDDDGVTAKDLSKQLHSSVRTGNLETCLRLLSLGAQANFFHPEKGTTPLHVAAKAGQTLQAELLVVYGADPGSPDVNGRTPIDYARQAGHHELAERLVECQYELTDRLAFYLCGRKPDHKNGHYIIPQMADRSRQKCMSQSLDLSELAKAAKKKLQALSNRLFEELAMDVYDEVDRRENDAVWLATQNHSTLVTERSAVPFLPVNPEYSATRNQGRQKLARFNAREFATLIIDILSEAKRRQQGKSLSSPTDNLELSARNQSDLDDQHDYDSVASDEDTDQEPLPSAGATRNNRARSMDSSDLSDGAVTLQEYLELKKALATSEAKVQQLMKVNSSLSDELRKLQREIHKLQAENLQLRQPPGPVPVPSLPSERAEHTLMGPGGSTHRRDRQAFSMYEPGSALKPFGGAPGDELATRLQPFHSTELEDDAIYSVHVPAGLYRIRKGVSASSVTFTPSSPLLSSSQEGSRHASKLSRHGSGAESDYENTQSGEPLLGLEGKRFLELSKEDELHAELESLDGDPDPGLPSTEDVILKTEQVTKNIQELLRAAQEFKHDSFVPCSEKIHLAVTEMASLFPKRPALEPVRSSLRLLNASAYRLQSECRKTVPPEPGAPVDFQLLTQQVIQCAYDIAKAAKQLVTITTREKKQ |
| binds | binds | binds | Flag-tagged wild-type human GIT2 (protein, UniProt Q14161-1 1-759) MSKRLRSSEVCADCSGPDPSWASVNRGTFLCDECCSVHRSLGRHISQVRHLKHTPWPPTLLQMVETLYNNGANSIWEHSLLDPASIMSGRRKANPQDKVHPNKAEFIRAKYQMLAFVHRLPCRDDDSVTAKDLSKQLHSSVRTGNLETCLRLLSLGAQANFFHPEKGNTPLHVASKAGQILQAELLAVYGADPGTQDSSGKTPVDYARQGGHHELAERLVEIQYELTDRLAFYLCGRKPDHKNGQHFIIPQMADSSLDLSELAKAAKKKLQSLSNHLFEELAMDVYDEVDRRETDAVWLATQNHSALVTETTVVPFLPVNPEYSSTRNQGRQKLARFNAHEFATLVIDILSDAKRRQQGSSLSGSKDNVELILKTINNQHSVESQDNDQPDYDSVASDEDTDLETTASKTNRQKSLDSDLSDGPVTVQEFMEVKNALVASEAKIQQLMKVNNNLSDELRIMQKKLQTLQSENSNLRKQATTNVYQVQTGSEYTDTSNHSSLKRRPSARGSRPMSMYETGSGQKPYLPMGEASRPEESRMRLQPFPAHIGRSALVTSSSSLPSFPSTLSWSRDESARRASRLEKQNSTPESDYDNTPNDMEPDGMGSSRKGRQRSMVWPGDGLVPDTAEPHVAPSPTLPSTEDVIRKTEQITKNIQELLRAAQENKHDSYIPCSERIHVAVTEMAALFPKKPKSDMVRTSLRLLTSSAYRLQSECKKTLPGDPGSPTDVQLVTQQVIQCAYDIAKAAKQLVTITTKENNN |
